Values quoted from earlier work in patent US12564599B2, “Pharmaceutical composition comprising tetrahydrocannabivarin for the prevention and treatment of overweight” (CepVentures International Corporation, priority 2019, dated 2026).
Some entries share one result that the patent states for a list of compounds. Some compounds share one range, which may span the group rather than tell each member.

Settings: drug compared to placebo

| SMILES | weight loss of body weight |
| --- | --- |
| CCN[C@@H](C)Cc1cccc(C(F)(F)F)c1 [Dexfenfluramine] | 5%-10% |
| CC(C)CC(N(C)C)C1(c2ccc(Cl)cc2)CCC1 (stereo not drawn) [Sibutramine] | 5%-10% |
| CC(C)(N)Cc1ccccc1 [Phentermine] | 5%-10% |
